Experimental data from PMC10773939.
These are yes or no findings as the source states them, for the method shown. Binding seen in cells or lysates may run through a third protein. Some binding calls cover weakened binding; strength is not graded here.

Sequences of proteins named here, by UniProt entry; tags and fusion partners are left off.
UniProt P15409: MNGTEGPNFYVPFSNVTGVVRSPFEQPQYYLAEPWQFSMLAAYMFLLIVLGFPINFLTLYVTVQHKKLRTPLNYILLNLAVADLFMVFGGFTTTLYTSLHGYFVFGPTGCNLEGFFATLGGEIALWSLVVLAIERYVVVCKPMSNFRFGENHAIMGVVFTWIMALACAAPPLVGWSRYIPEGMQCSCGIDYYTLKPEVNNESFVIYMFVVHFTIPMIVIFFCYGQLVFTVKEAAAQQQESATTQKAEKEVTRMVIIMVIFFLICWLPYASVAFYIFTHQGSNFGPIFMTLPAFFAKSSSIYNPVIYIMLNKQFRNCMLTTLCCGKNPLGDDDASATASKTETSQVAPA
UniProt P08100: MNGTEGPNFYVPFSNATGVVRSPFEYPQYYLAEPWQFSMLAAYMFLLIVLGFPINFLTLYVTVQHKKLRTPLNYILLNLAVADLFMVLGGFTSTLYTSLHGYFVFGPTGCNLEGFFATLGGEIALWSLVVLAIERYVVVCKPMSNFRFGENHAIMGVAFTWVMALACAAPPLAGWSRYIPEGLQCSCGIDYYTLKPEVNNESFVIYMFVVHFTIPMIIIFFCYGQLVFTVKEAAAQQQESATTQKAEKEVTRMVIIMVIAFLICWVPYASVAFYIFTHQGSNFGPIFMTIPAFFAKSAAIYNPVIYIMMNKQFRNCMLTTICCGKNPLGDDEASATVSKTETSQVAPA
UniProt P60879: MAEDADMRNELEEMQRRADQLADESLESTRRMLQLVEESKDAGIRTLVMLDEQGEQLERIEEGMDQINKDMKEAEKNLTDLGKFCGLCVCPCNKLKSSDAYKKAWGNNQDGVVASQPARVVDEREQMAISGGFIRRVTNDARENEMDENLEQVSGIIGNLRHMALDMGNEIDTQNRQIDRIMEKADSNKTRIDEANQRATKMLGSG

B1: syntaxin 3 (protein, UniProt Q64704 1-289)
chain: MKDRLEQLKAKQLTQDDDTDEVEIAIDNTAFMDEFFSEIEETRLNIDKISEHVEEAKKLYSIILSAPIPEPKTKDDLEQLTTEIKKRANNVRNKLKSMEKHIEEDEVRSSADLRIRKSQHSVLSRKFVEVMTKYNEAQVDFRERSKGRIQRQLEITGKKTTDEELEEMLESGNPAIFTSGIIDSQISKQALSEIEGRHKDIVRLESSIKELHDMFMDIAMLVENQGEMLDNIELNVMHTVDHVEKARDETKRAMKYQGQARKKLIIIIVVVVVLLGILALIIGLSVGLK

Tests used:
[1] = biological target: endogenous mouse rhodopsin (mouse (endogenous in retina)) (UniProt P15409); experiment: co-IP; anti-1D4 IgG-conjugated beads added to IS-enriched retinal lysates (Rho-GFP/+ or WT mice; T-PER lysis buffer), overnight at 4°C, 4 washes in PBS-T, western blot of bound fraction
[2] = biological target: human rhodopsin-GFP fusion (Rho-GFP) from Rho-GFP/+ knock-in mouse retina (human) (UniProt P08100); experiment: co-IP; GFP-Trap beads added to IS-enriched retinal lysates (Rho-GFP/+ or Rho-GFP-1D4/+ mice; T-PER lysis buffer), overnight at 4°C, 4 washes in PBS-T, western blot of bound fraction
[3] = biological target: human rhodopsin-GFP-1D4 fusion (Rho-GFP-1D4) from Rho-GFP-1D4/+ knock-in mouse retina (human) (UniProt P08100); experiment: as above

Molecule | binding [1] | binding [2] | binding [3]
human rhodopsin-GFP fusion (Rho-GFP) from Rho-GFP/+ knock-in mouse retina (from UniProt P08100 1-348) (receptor) | binds |  | 
SNAP25 (from UniProt P60879 1-206) |  | binds | binds
B1 | binds | binds | binds
